## Assay results

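A panel of P. falciparum strains inside erythrocytes is exposed to compounds for three days, then a DNA-binding dye reports the amount of parasite DNA. Each compound was titrated across a series from about 0.000037 to 29 µM. The number is the fitted AC50, the concentration giving a half-maximal change in signal; a lower value means higher potency, whether the curve shows a decrease or an increase. Calls follow the curve class and fit quality: every row here is inconclusive, covering signal-raising curves and weak, poorly fitted, partial or highest-dose-only inhibition curves.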

Values are in µM. All entries here are filed as inconclusive. Only part of the assay is shown, chiefly results filed as inconclusive. Potencies fitted to partial, single-point or poorly fitting curves are rough. Some entries filed as inconclusive have a full curve. The first word of each remark tells which way the curve ran; it can be opposite to the aim of the assay.

compound	condition	potency (µM)	curve
CCCCC/C=C\C/C=C\C/C=C\C/C=C\CCCC(=O)NCC(=O)O	TAB165	0.0141	inhibitor, full curve, poor fit
CCCCC/C=C\C/C=C\C/C=C\C/C=C\CCCC(=O)NCC(=O)O	CP266	1.694	inhibitor, single point
CCCCC/C=C\C/C=C\C/C=C\C/C=C\CCCC(=O)NCC(=O)O	PC49	0.2818	inhibitor, single point
[S]=[Sb][S][Sb]=[S]	PC26	21.33	activator, partial curve, poor fit
Cc1c(C)c2c(c(C)c1O)CC[C@@](C)(CCC[C@@H](C)CCC[C@@H](C)CCCC(C)C)O2	P93_24	4.467	inhibitor, single point
Cc1c(C)c2c(c(C)c1O)CC[C@@](C)(CCC[C@@H](C)CCC[C@@H](C)CCCC(C)C)O2	parasite line A	1.122	inhibitor, partial curve, poor fit
Cc1c(C)c2c(c(C)c1O)CC[C@@](C)(CCC[C@@H](C)CCC[C@@H](C)CCCC(C)C)O2	AS120	2.239	inhibitor, partial curve
Cc1c(C)c2c(c(C)c1O)CC[C@@](C)(CCC[C@@H](C)CCC[C@@H](C)CCCC(C)C)O2	P94_40	1	inhibitor, partial curve
Cc1c(C)c2c(c(C)c1O)CC[C@@](C)(CCC[C@@H](C)CCC[C@@H](C)CCCC(C)C)O2	TAB109	2.818	inhibitor, single point
O=C(OOC(=O)c1ccccc1)c1ccccc1	CP297	0.0135	inhibitor, full curve, poor fit
NC(=O)n1c(O)c(C(=O)c2cccs2)c2cc(Cl)ccc21	7G8	7.08	inhibitor, single point
NC(=O)n1c(O)c(C(=O)c2cccs2)c2cc(Cl)ccc21	W2	4.776	inhibitor, partial curve, poor fit
Cn1c(NCCN(CCO)CCCc2ccc([N+](=O)[O-])cc2)cc(=O)n(C)c1=O	CP191	17.78	inhibitor, single point
Cn1c(NCCN(CCO)CCCc2ccc([N+](=O)[O-])cc2)cc(=O)n(C)c1=O	CP247	12.59	inhibitor, single point
CC(=O)O[C@H]1C(=O)[C@@]2(C)[C@H]([C@H](OC(=O)c3ccccc3)[C@]3(O)C[C@H](OC(=O)[C@H](O)[C@@H](NC(=O)c4ccccc4)c4ccccc4)C(C)=C1C3(C)C)[C@]1(OC(C)=O)CO[C@@H]1C[C@@H]2O	CP266	0.6012	inhibitor, full curve, poor fit
CC(=O)O[C@H]1C(=O)[C@@]2(C)[C@H]([C@H](OC(=O)c3ccccc3)[C@]3(O)C[C@H](OC(=O)[C@H](O)[C@@H](NC(=O)c4ccccc4)c4ccccc4)C(C)=C1C3(C)C)[C@]1(OC(C)=O)CO[C@@H]1C[C@@H]2O	FAB9	0.4467	inhibitor, full curve
CC(=O)O[C@H]1C(=O)[C@@]2(C)[C@H]([C@H](OC(=O)c3ccccc3)[C@]3(O)C[C@H](OC(=O)[C@H](O)[C@@H](NC(=O)c4ccccc4)c4ccccc4)C(C)=C1C3(C)C)[C@]1(OC(C)=O)CO[C@@H]1C[C@@H]2O	CP268	0.6012	inhibitor, full curve
CCC(C)(C)c1ccc(CC(C)CN2C[C@@H](C)O[C@@H](C)C2)cc1 (stereo partly shown)	CP286	17.78	inhibitor, single point
CCC(C)(C)c1ccc(CC(C)CN2C[C@@H](C)O[C@@H](C)C2)cc1 (stereo partly shown)	Dd2	14.13	inhibitor, single point
CCC(C)(C)c1ccc(CC(C)CN2C[C@@H](C)O[C@@H](C)C2)cc1 (stereo partly shown)	DIV14	19.01	inhibitor, single point
CCC(C)(C)c1ccc(CC(C)CN2C[C@@H](C)O[C@@H](C)C2)cc1 (stereo partly shown)	CP260	17.78	inhibitor, single point
CCC(C)(C)c1ccc(CC(C)CN2C[C@@H](C)O[C@@H](C)C2)cc1 (stereo partly shown)	CP237	12.59	inhibitor, single point
CCCCC[C@H](O)/C=C/[C@@H]1[C@H]2C/C(=C/CCCC(=O)O)O[C@H]2C[C@H]1O	CP203	0.0011	activator, full curve, poor fit
CCCCC[C@H](O)/C=C/[C@@H]1[C@H]2C/C(=C/CCCC(=O)O)O[C@H]2C[C@H]1O	CP260	17.78	inhibitor, single point

Some entries from above, unchanged:

compound	condition	potency (µM)	curve
Cc1c(C)c2c(c(C)c1O)CC[C@@](C)(CCC[C@@H](C)CCC[C@@H](C)CCCC(C)C)O2	parasite line A	1.122	inhibitor, partial curve, poor fit
NC(=O)n1c(O)c(C(=O)c2cccs2)c2cc(Cl)ccc21	7G8	7.08	inhibitor, single point
[S]=[Sb][S][Sb]=[S]	PC26	21.33	activator, partial curve, poor fit

The results are deposited in PubChem (AID504749; NCATS, 2011).